Literature values in PMC3561686 (Basic & Clinical Pharmacology & Toxicology, 2012).

Tested on: CYP3A
Conditions: cited from earlier work

CC(C)c1c(C(=O)Nc2ccccc2)c(-c2ccccc2)c(-c2ccc(F)cc2)n1CC[C@@H](O)C[C@@H](O)CC(=O)O [atorvastatin]
Change in prasugrel AM formation or the inhibition of platelet aggregation when prasugrel was administered with the drug: no change
